Results from patent US7148020B2 (Arexis AB, priority 2001, dated 2006).

Assay: general procedure: Fmoc solid-phase peptide synthesis; Fmoc-Gly-TentaGel-R-PHB resin (~0.2 mmol/g, Rapp Polymere); DIC/HOBt; HATU/DIPEA; HBTU/DIPEA; DIC/HOAt
Settings: whole synthesis

Row | Substance | isolated mass (scale 10 μmol) | isolated yield (scale 10 μmol) | isolated mass (scale 20 μmol) | isolated yield (scale 20 μmol)
1 | [(Pro-Hyp-Gly)5-CII(257-258Hyp-273T-274)]3-LAhx | 5.2 mg | 5.2% |  | 
2 | KTA-[Gly-(Gly-Pro-Hyp)5-Gly-CII(257-258Hyp-273T-274)]3-L(F)Ahx |  |  | 8.9 mg | 4.1%
